According to PubChem BioAssay AID540256 (National Center for Advancing Translational Sciences (NCATS), 2011):
About 3,700 (1.2%) of roughly 300,000 compounds were called active. The inconclusive results got no clear call from the source; some entries with a clear call stand among them for comparison. The call rests on the fitted dose curve; tested in HEK293 cells. A potency beside an inconclusive call is a rough fit, not a confirmed value.

Experiment: qHTS for Inhibitors of binding or entry into cells for Lassa Virus; further: nearly all actives have a fitted effect of over 50% in size
Details: Lassa virus pseudotype entry inhibition, cell reporter; activity change, negative = inhibition: at 37.9 µM (top of the series) unless noted
On the % scale 0 is the no-effect control and ±100 the full control effect; potency means the concentration at half of the fitted maximal effect.

| SMILES | Potency | activity change, negative = inhibition |
| --- | --- | --- |
| O=C(Nc1ccc(-c2csc(-c3ccccc3)n2)cc1)c1ccccc1 | inconclusive: 16.4 µM [inhibitor, single point] |  |
| CN(C)CCOC(=O)C12CC3(C)CC(C)(CC(C)(C3)C1)C2 | inconclusive: 0.082 µM [activator, full curve, poor fit] |  |
| CCOc1cc(C(=O)N2CCN(c3ccccn3)CC2)cc(OCC)c1OCC | inconclusive: 12.6 µM [activator, partial curve, poor fit] |  |
| Cc1c(C(=O)N2CCc3ccccc3C2)sc2nc(-c3ccccc3)cn12 |  | inactive: 7.59% |
| O=C(Nc1ccccc1C(F)(F)F)c1noc2c1CCCC2 |  | inactive: 5.62% [at 46.1 µM] |
| CC(=O)OC[C@H]1O[C@@H](ON=C2C[C@@H](O)[C@@H](O)[C@@H]3[C@H]4C(=O)N(Cc5ccccc5)C(=O)[C@@H]4CC[C@@H]23)[C@H](OC(C)=O)[C@@H](OC(C)=O)[C@H]1OC(C)=O | inconclusive: 1.19 µM [activator, single point] |  |
| COc1cccc(CC(NC(C)=O)C(=O)NC2CCN(S(=O)(=O)c3ccc(F)cc3)CC2)c1OC (centres undefined) | inconclusive: 2.59 µM [inhibitor, partial curve, poor fit] |  |
| CCc1ccc(Nc2nc3c(S(=O)(=O)c4ccc(C)cc4)nnn3c3ccsc23)cc1 | inconclusive: 2.82 µM [inhibitor, single point] |  |
| CN(N)C(=S)Nc1ccc(F)cc1 |  | inactive: 19.6% [at 46.1 µM] |
| O=C(c1ccccc1)N(Cc1cccs1)C1CCS(=O)(=O)C1 (centres undefined) | inconclusive: 29.1 µM [activator, single point] |  |
| COc1ccccc1NC(=O)CCC(=O)c1ccc(-c2ccccc2)cc1 |  | inactive: -0.288% |
| Cc1ccccc1NC(=O)CSc1n[nH]c(-c2ccco2)n1 |  | inactive: 25.3% |
| CCN(Cc1ccccc1)C(=O)C1CCC(CNS(=O)(=O)c2ccc3c(c2)CCCC(=O)N3)CC1 (centres undefined) |  | inactive: -17.8% [at 46.1 µM] |
| COCCCNC(=O)/C(C#N)=C1\N=C(NC(=O)c2cccs2)c2ccccc21 | inconclusive: 31.6 µM [activator, single point] |  |
| O=S(=O)(NNc1ccc(F)cc1F)c1cccc(Cl)c1 | inconclusive: 0.891 µM [inhibitor, single point] |  |
| c1ccc2c(SCc3cn4cccnc4n3)ncnc2c1 |  | inactive: 21.8% |
| CCOC(=O)c1c(-c2ccc(C)o2)csc1NC(=O)CSc1nnnn1-c1ccccc1 |  | inactive: -26% |
| COc1cccc(C(=O)C2CCCN(C(=O)c3cccc(C#CC(C)(C)O)c3)C2)c1 (centres undefined) | inconclusive: 3.55 µM [inhibitor, partial curve, poor fit] |  |
| CC(=O)N1CCCc2cc(S(=O)(=O)NCc3ccccc3Cl)ccc21 |  | inactive: 2.11% [at 46.1 µM] |
| O=c1c2c3nc4ccccc4nc3n(/N=C/c3ccccn3)c2ncn1-c1ccccc1 |  | inconclusive: 2.94% [activator] |
| Cc1ccc(/C=C/C(=O)NC(=S)Nc2ccccc2C(=O)NC2CCCCC2)cc1 | inconclusive: 14.6 µM [inhibitor, single point] |  |
| Cn1c(CSc2ccccc2)c(C#N)c2ccccc21 | inconclusive: 1.3 µM [activator, full curve, poor fit] |  |
| O=C(c1cccc(F)c1)N1CCN(c2cccc(Cl)c2)CC1 | inconclusive: 14.1 µM [inhibitor, single point] |  |

Random excerpt: 5 entries already listed, in no set order.

| SMILES | Potency | activity change, negative = inhibition |
| --- | --- | --- |
| CCOC(=O)c1c(-c2ccc(C)o2)csc1NC(=O)CSc1nnnn1-c1ccccc1 |  | inactive: -26% |
| CCOc1cc(C(=O)N2CCN(c3ccccn3)CC2)cc(OCC)c1OCC | inconclusive: 12.6 µM [activator, partial curve, poor fit] |  |
| O=C(Nc1ccccc1C(F)(F)F)c1noc2c1CCCC2 |  | inactive: 5.62% [at 46.1 µM] |
| CC(=O)N1CCCc2cc(S(=O)(=O)NCc3ccccc3Cl)ccc21 |  | inactive: 2.11% [at 46.1 µM] |
| COc1ccccc1NC(=O)CCC(=O)c1ccc(-c2ccccc2)cc1 |  | inactive: -0.288% |

(list continues)

| SMILES | Potency | activity change, negative = inhibition |
| --- | --- | --- |
| Cc1ccc(-c2nnn(CC(=O)Nc3cccc4cccnc34)n2)o1 | inconclusive: 2.91 µM [activator, single point] |  |
| O=[N+]([O-])c1ccccc1/C=C/c1ccc2ccccc2n1 |  | inactive: -14.3% [at 46.1 µM] |
| CC(C)CC(=O)Nc1ccc2c(c1)OCO2 | inconclusive: 12.6 µM [activator, partial curve, poor fit] |  |
| Cc1cccc(Cn2ccc(N)n2)c1 | inconclusive: 25.1 µM [inhibitor, single point] |  |
| COc1cccc(-c2cc(C(=O)N/N=C/c3ccc(OC)c(COC(C)=O)c3)c3ccccc3n2)c1 |  | inactive: -3.26% |
| O=C(O)c1ccc(COc2ccccc2/C=C2\NC(=O)N(Cc3ccccc3F)C2=O)cc1 | inconclusive: 0.562 µM [inhibitor, full curve, poor fit] |  |
| CCN(CC)CCNC(=O)c1ccc(-c2nc(CN3CCc4ccccc43)c(C)o2)cc1 |  | inactive: -3.32% [at 46.1 µM] |
| COc1ccc(C(=O)Oc2cc(C(=S)N3CCOCC3)ccc2OC)cc1 | inconclusive: 8.91 µM [inhibitor, partial curve, poor fit] |  |
| CC(C)NCCCCOc1ccccc1-c1ccccc1 | inconclusive: 32.6 µM [inhibitor, single point] |  |
| COc1cccc(CNC(=O)C2CCN(Cc3cc4ccccc4n3Cc3ccccc3)CC2)c1OC | inconclusive: 35.5 µM [inhibitor, single point] |  |
| O=C(COC(=O)c1cc(-c2ccccc2Cl)nc2ccccc12)Nc1ncc(C(F)(F)F)cc1Cl |  | inactive: 9.69% |
| Cc1ccc(/C(N)=N/OC(=O)CN(C)S(=O)(=O)c2ccc(C)cc2)cc1 | inconclusive: 1 µM [inhibitor, full curve, poor fit] |  |
| Cc1ccc(-n2ncc(C(=O)NCc3ccccn3)c2C2CCN(C(=O)OC(C)(C)C)CC2)cc1C | inconclusive: 7.08 µM [inhibitor, partial curve, poor fit] |  |
| CSc1ccc(CN(C)C(=O)c2cccc(S(=O)(=O)N3CCN(Cc4ccccc4)CC3)c2)cc1 |  | inactive: -17.1% |
| Cc1ccc(Nc2nc(CSc3nnc(-c4ccccc4C)n3C)cs2)cc1 | inconclusive: 35.5 µM [inhibitor, single point] |  |
| COc1ccc(CNC(=O)c2csc(Cc3ccc(OC)cc3)n2)cc1 | inconclusive: 11.2 µM [inhibitor, partial curve, poor fit] |  |
| COCCn1c(=S)[nH]c2cc(OC)c(OC)cc2c1=O |  | inactive: -1.67% |
| CCOC(=O)c1cc(-c2ccc(N3CCOCC3)cc2)nn1-c1ccc(F)cc1F | inconclusive: 14.1 µM [inhibitor, single point] |  |
| COC(=O)c1ccccc1N/C=C/C(=O)c1ccc(Br)cc1 |  | inactive: 3.73% |
| Cn1c(SCC(=O)Nc2cccc3ccccc23)nc(O)cc1=O |  | inactive: 3.24% |
| O=C(CSc1nnc(Nc2ccccc2F)s1)NCc1ccco1 | inconclusive: 35.5 µM [activator, single point] |  |
| CCOc1ccc(S(=O)(=O)NCc2ccc3c(c2)CCN3C(=O)c2ccc(C)cc2)cc1 |  | inactive: -27.4% [at 46.1 µM] |
| Cc1ccc(C)c(S(=O)(=O)N2CCN(C(=O)C(C)Sc3ccccc3)CC2)c1 (centres undefined) | inconclusive: 10 µM [inhibitor, partial curve, poor fit] |  |

| SMILES | Potency | activity change, negative = inhibition |
| --- | --- | --- |
| O=C(CNC(=O)c1ccc(Cl)cc1)OCCCOC(=O)CNC(=O)c1ccc(Cl)cc1 |  | inactive: 0.358% |
| COc1ccc(-c2noc(C3CCCN(C(=O)c4c(F)cccc4F)C3)n2)cc1OC (centres undefined) |  | inactive: -17.2% [at 46.1 µM] |
| O=C(c1ccc(C(F)(F)F)cc1)C1CCCN(C(=O)Cn2cncn2)C1 (centres undefined) | inconclusive: 35.5 µM [activator, partial curve, poor fit] |  |
| CCOc1cc(C=C2C(=O)c3ccccc3C2=O)ccc1OCC(=O)Nc1ccc(C)cc1 |  | inconclusive: 31.2% [activator] |
| CCN(CC(=O)NCc1ccc(F)cc1)C(=O)c1oc2ccccc2c1C | inconclusive: 10 µM [inhibitor, partial curve, poor fit] |  |
| CCOC(=O)c1sc2nc(C)nc(Nc3ccccc3)c2c1C | inconclusive: 9.2 µM [inhibitor, partial curve, poor fit] |  |
| Cc1nn(-c2ccccc2)nc1C(=O)c1c(C)[nH]n(-c2ccccc2)c1=O |  | inactive: -0.0729% [at 46.1 µM] |
| COc1ccc(C(c2nnnn2Cc2cccs2)N2CCN(c3ccccc3F)CC2)cc1 (centres undefined) | inconclusive: 5.17 µM [inhibitor, partial curve, poor fit] |  |
| COc1cc(C(C)=O)ccc1OCC(O)CN1CCN(c2ccc(C)c(C)c2)CC1 (centres undefined) | inconclusive: 22.4 µM [inhibitor, single point] |  |
| CCCOc1ccc(NC(=O)CC2C(=O)N(c3ccc(OC)cc3)C(=O)N2CCc2ccncc2)cc1 (centres undefined) | inconclusive: 3.98 µM [activator, single point] |  |
| Clc1ccc(CN2CCc3nc(N4CCN(c5ccccn5)CC4)ncc3C2)cc1 |  | inactive: 0.391% [at 46.1 µM] |
| CCN(CC)C(=O)N1CCN(S(=O)(=O)c2c(C)cc(C)cc2C)CC1 | inconclusive: 8.91 µM [inhibitor, partial curve, poor fit] |  |
| COC(=O)C1=C(C)N2C(=O)CSC2=NC1c1ccc2c(c1)OCO2 (centres undefined) | inconclusive: 1.41 µM [inhibitor, partial curve, poor fit] |  |
| CCOc1ccc(CC(=O)OCN2C(=O)c3ccccc3C2=O)cc1 |  | inactive: -0.456% |
| CCCc1cc(=O)[nH]c(SCC(=O)c2c(N)n(C)c(=O)n(C)c2=O)n1 |  | inactive: -5.95% |
| Cc1nn(C)cc1C(C)NC(=O)c1cc(COc2cccc3cnccc23)on1 (centres undefined) |  | inactive: -26.4% |
| CC(C)N(C(=S)Nc1ccc(S(=O)(=O)N2CCOCC2)cc1)c1ccccc1 |  | inactive: -4.48% [at 46.1 µM] |
| COC(=O)c1cc(NC(=O)CN(c2ccccc2OC)S(=O)(=O)c2ccccc2)ccc1Cl | inconclusive: 7.94 µM [inhibitor, partial curve] |  |
| O=C(OC1CCOC1=O)c1cccc(S(=O)(=O)Nc2cccc(Cl)c2)c1 (centres undefined) | inconclusive: 1.41 µM [inhibitor, single point] |  |
| CCOC(=O)c1ccc(Oc2nc(C)nc3c2oc2ccccc23)cc1 |  | inactive: 17.8% [at 46.1 µM] |
| CCCN(CCC)c1nn2c(=O)c(C(=O)NCc3cc(Br)ccc3OC)cnc2s1 |  | inactive: -9.79% [at 46.1 µM] |
| Cc1ccc(S(=O)(=O)N2CCOCC2)cc1NC(=O)CNCc1ccccc1Cl | inconclusive: 2.82 µM [inhibitor, full curve, poor fit] |  |
| CC(=O)NC(c1ccc(C(C)C)cc1)c1ccc2cccnc2c1O (centres undefined) | inconclusive: 5.62 µM [inhibitor, full curve, poor fit] |  |
